Results published in the supplement of paper PMC12889115.
The other results are listed elsewhere or left out. These are raw signals, not scaled to a control.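 Primary screen: polymyxin B was added at a level permeabilizing Salmonella outer membranes while sparing inner membranes. DMSO wells, both with and without polymyxin B, established maximum growth. Plate-to-plate variation meant each plate was ranked on its own, and the lowest-OD600 compounds were selected as hits.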

System: Salmonella enterica serovar Typhimurium SL1344
Test: bacterial growth OD600 after 18 h with compound and polymyxin B; higher = more bacterial growth (less inhibition)
Details: 50 µM, Mueller-Hinton broth

Compound | bacterial growth OD600 (polymyxin B 1 µg/mL) | bacterial growth OD600 (polymyxin B 0.75 µg/mL)
COc1cc(CN2CCN(Cc3ccc(F)c(F)c3)CC2CCO)cc(OC)c1 (centres undefined) | 0.843 | –
Fc1cccc(-c2cnnc(N3CCCC3c3nc4cc(F)ccc4[nH]3)n2)c1 (centres undefined) | – | 0.593
CC(C)N1C[C@H]2OC(=O)N(CCc3cccc(Cl)c3)[C@H]2C1 | 0.869 | –
Cc1ccccc1CCN1CCC(CN(C(=O)C2CCOCC2)C2CCCC2)CC1 | 0.828 | –
Cc1cnc(C)c(-c2ccc3c(c2)CC(CNC(=O)Cc2cccc(C(F)(F)F)c2)O3)n1 (centres undefined) | – | 0.88
CN1CCN(C(=O)c2cc(COc3cncc(Cl)c3)on2)CC1c1ccccc1 (centres undefined) | 0.815 | –
COc1ccc(CN2CCN(Cc3nc(C(C)C)cs3)CC2CCO)c(C)c1C (centres undefined) | 0.937 | –
Cc1ccc(Oc2ncccc2CNC(=O)c2ccc(C)nc2)cn1 | 1.04 | –
Cc1ccccc1CN1C[C@@H]2C[C@@H](c3cc4ccccc4o3)N3CCC[C@@]23C1=O | 0.011 | –
